The shares of active, inactive and inconclusive entries below differ from those in the screen. For some assays here: Potencies beside an inconclusive call are fits to weak or partial responses and may not hold up. Where a structure was tested more than once in an assay, its records may differ in their call. The source made the active and inactive calls. The calls were made as follows: active = hit-call score of the fitted dose curve at least 0.9, where 1 is the maximum; inconclusive = response in the unintended direction; inactive = score below 0.9.
Assays:
[1] = target: Peroxisome proliferator-activated receptor gamma (Homo sapiens) (UniProt P37231); test: NVS_NR_hPPARg: NovaScreen (NVS) Nuclear Receptor Binding Assay for human Peroxisome Proliferator-activated Receptor gamma (PPARg) (AID 2283370)
In short: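 Cell-free fluorescence polarization binding to human PPARg protein, read 2 h after dosing. Primary screen in duplicate at 25 uM, actives followed in concentration series; loss of signal relative to DMSO scored.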

Sequences of proteins named here, by UniProt entry; tags and fusion partners are left off. A change or cut given only in a name is not applied to a line headed by its entry.
UniProt P37231: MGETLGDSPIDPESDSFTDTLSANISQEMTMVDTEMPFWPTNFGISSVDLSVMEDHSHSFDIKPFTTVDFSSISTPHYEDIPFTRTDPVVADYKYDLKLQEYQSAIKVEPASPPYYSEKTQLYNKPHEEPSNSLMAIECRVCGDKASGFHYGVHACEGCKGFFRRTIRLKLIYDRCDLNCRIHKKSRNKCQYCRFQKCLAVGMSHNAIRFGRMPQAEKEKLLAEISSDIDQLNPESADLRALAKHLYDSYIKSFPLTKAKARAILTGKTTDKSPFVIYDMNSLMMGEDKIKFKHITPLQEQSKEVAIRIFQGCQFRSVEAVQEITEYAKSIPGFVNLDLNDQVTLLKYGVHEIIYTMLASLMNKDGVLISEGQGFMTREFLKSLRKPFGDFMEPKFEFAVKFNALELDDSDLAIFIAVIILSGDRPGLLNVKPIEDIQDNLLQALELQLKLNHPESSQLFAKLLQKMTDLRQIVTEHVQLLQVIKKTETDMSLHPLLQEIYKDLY
UniProt P19785, whole entry, looked up: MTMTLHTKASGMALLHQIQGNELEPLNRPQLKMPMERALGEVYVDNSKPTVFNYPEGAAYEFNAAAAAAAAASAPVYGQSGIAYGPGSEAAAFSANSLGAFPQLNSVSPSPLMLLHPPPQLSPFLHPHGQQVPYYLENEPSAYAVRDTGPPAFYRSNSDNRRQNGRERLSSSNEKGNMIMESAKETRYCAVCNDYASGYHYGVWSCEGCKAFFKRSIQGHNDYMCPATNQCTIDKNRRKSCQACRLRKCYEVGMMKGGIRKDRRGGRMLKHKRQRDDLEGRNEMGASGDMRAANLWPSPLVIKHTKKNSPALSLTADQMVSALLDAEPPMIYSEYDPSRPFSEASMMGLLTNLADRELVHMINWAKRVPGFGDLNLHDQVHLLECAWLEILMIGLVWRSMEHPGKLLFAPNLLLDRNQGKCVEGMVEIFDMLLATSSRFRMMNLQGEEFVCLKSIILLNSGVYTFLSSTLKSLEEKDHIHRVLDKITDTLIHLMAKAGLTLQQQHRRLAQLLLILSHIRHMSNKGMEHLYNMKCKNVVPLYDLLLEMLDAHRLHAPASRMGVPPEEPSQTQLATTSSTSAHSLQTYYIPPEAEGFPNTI
UniProt P31652, whole entry, looked up: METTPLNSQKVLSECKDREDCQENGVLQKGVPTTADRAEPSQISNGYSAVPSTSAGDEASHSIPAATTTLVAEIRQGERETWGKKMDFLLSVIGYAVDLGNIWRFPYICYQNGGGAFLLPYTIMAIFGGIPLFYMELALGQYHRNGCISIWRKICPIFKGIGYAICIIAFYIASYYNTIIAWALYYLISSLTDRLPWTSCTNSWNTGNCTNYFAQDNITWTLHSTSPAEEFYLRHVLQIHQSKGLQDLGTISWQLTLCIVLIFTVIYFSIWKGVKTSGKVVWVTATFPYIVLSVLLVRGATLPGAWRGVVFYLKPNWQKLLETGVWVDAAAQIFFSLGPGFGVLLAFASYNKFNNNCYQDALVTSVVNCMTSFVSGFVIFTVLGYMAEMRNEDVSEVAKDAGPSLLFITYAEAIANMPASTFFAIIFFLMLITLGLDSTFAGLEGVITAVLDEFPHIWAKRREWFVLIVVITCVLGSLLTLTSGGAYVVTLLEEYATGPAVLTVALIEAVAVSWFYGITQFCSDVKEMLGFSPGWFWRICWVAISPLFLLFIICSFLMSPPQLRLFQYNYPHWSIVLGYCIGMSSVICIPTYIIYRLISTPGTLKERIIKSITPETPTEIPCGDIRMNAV
UniProt Q96RI1: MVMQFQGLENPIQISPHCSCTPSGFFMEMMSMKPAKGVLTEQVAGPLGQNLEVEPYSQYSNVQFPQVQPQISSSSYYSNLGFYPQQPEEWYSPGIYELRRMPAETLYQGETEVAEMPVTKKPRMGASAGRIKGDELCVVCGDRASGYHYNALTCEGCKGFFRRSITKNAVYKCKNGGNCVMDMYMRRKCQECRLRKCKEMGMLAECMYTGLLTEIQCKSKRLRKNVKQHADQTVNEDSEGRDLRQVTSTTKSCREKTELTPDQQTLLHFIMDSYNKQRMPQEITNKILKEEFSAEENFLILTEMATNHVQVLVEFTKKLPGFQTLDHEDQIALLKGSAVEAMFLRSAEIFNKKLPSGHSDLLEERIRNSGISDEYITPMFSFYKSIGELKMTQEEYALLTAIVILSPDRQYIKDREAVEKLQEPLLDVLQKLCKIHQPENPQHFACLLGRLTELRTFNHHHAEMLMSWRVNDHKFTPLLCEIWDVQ
UniProt P15207: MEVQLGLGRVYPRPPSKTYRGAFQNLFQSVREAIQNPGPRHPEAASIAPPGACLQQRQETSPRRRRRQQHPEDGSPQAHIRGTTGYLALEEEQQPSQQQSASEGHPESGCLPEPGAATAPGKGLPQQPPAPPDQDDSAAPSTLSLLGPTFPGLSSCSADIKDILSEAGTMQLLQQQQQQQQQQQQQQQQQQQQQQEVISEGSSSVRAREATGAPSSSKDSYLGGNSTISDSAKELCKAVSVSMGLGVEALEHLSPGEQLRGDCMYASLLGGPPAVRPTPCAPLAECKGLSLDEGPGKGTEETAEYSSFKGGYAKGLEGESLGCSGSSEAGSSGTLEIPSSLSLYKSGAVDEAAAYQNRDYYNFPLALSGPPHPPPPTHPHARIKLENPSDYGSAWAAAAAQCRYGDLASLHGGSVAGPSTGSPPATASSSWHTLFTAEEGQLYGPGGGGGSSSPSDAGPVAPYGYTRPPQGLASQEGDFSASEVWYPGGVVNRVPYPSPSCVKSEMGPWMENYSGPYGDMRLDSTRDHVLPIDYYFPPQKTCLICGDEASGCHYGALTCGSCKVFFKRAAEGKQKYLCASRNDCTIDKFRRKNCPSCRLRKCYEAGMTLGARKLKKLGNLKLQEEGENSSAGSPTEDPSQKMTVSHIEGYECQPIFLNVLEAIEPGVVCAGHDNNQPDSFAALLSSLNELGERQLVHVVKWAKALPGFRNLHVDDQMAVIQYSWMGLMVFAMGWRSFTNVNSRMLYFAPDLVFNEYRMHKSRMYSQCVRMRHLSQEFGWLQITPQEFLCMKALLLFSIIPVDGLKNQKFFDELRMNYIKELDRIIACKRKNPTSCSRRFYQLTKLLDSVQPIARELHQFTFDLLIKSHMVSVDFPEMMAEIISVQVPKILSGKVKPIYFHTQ
UniProt Q99808: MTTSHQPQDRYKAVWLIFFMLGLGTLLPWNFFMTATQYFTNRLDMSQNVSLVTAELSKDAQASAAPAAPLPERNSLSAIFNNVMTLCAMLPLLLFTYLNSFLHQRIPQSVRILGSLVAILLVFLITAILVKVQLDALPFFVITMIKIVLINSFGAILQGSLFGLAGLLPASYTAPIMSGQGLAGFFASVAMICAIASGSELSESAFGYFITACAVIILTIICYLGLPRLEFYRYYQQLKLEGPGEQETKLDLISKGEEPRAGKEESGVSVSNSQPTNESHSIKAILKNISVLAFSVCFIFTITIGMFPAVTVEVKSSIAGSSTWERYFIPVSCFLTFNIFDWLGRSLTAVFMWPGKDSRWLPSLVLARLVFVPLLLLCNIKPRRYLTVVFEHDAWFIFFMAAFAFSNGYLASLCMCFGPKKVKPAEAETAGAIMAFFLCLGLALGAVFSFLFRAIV
UniProt P31645, whole entry, looked up: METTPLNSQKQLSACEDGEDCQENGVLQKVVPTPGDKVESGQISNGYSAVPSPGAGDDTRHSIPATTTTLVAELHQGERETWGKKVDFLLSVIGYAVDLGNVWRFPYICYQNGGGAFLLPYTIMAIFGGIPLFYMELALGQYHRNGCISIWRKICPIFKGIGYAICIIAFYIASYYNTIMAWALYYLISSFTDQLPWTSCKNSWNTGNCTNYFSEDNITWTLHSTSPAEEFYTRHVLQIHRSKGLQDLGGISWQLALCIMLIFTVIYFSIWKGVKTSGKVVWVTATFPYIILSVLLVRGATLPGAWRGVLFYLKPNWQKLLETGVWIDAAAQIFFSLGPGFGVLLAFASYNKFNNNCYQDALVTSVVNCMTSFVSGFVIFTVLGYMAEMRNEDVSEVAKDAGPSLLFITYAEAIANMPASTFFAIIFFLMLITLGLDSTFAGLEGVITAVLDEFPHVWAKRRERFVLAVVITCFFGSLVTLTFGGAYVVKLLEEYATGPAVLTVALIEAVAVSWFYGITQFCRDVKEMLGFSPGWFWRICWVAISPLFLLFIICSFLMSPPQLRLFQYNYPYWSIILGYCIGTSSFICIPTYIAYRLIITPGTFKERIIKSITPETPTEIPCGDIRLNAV
UniProt Q92731, whole entry, looked up: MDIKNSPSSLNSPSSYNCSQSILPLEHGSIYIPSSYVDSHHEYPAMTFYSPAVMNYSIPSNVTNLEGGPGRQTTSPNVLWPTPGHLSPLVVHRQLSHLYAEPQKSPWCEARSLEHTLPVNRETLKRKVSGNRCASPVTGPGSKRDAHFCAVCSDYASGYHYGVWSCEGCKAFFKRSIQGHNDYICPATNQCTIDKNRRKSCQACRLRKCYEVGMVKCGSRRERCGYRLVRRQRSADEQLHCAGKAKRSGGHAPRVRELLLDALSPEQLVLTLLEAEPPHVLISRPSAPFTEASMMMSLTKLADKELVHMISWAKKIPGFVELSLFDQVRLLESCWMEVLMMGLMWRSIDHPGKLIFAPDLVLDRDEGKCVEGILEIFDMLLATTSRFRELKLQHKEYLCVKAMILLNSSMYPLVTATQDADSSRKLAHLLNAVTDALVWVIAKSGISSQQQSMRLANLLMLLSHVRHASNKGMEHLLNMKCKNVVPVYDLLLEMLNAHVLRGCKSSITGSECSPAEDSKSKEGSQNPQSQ

[2] = target: mouse Estrogen Receptor alpha (Era), Esr1 (gene 13982) (UniProt P19785); test: NVS_NR_mERa: NovaScreen (NVS) Nuclear Receptor Binding Assay for mouse Estrogen Receptor alpha (Era) (AID 2283378);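 also: hit means loss of bound radioligand signal relative to DMSO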
In short: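 Cell-free radioligand competitive displacement binding, read by filter-based scintillation counting 18 h after dosing. Primary screen run in duplicate at 25 uM, actives retested in concentration series; loss of signal versus DMSO.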

[3] = target: rat Serotonin Transporter (SERT), Slc6a4 (gene 25553) (UniProt P31652); test: NVS_TR_rSERT: NovaScreen (NVS) Transporter Assay for rat Serotonin Transporter (SERT) (AID 2283375)
In short: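 Rat forebrain membranes; radioligand displacement at SERT read by filter-based scintillation counting, 1 h after dosing. Screened in duplicate at 25 uM, actives then run in concentration series; loss of signal versus DMSO baseline.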

[4] = target: Bile acid receptor (Homo sapiens) (UniProt Q96RI1); test: OT_FXR_FXRSRC1_1440: Odyssey Thera (OT) 24-hour HEK293T Protein-Complementation Assay for Farnesoid X receptor/SRC-1 Co-activator (AID 2283384)
In short: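 Single endpoint, analysed for increased fluorescence against DMSO controls. HEK293T cells carrying FXR and SRC-1 linked to complementary reporter halves were exposed to chemicals for 24 h before reading.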

[5] = target: rat Androgen Receptor (AR), Ar (gene 24208) (UniProt P15207); test: NVS_NR_rAR: NovaScreen (NVS) Nuclear Receptor Binding Assay for rat Androgen Receptor (AR) (AID 2283366)
In short: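 Actives from a duplicate single-concentration (25 uM) primary run went on to concentration series. Displacement of radioligand was counted by filtration and scintillation, 18 h post-dose, using prostate extracts from testosterone-pretreated rats, with DMSO as baseline.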

[6] = target: Bile acid receptor (Homo sapiens) (UniProt Q96RI1); test: OT_FXR_FXRSRC1_0480: Odyssey Thera (OT) 8-hour HEK293T Protein-Complementation Assay for Farnesoid X receptor/SRC-1 Co-activator (AID 2283383)
In short: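 Readings were taken 8 h after dosing HEK293T cells in a split-reporter complementation format pairing FXR with SRC-1. Increased fluorescence relative to DMSO-treated wells defined activity.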

[7] = target: human Adenosine Transporter (Adot), SLC29A1 (gene 2030) (UniProt Q99808); test: NVS_TR_hAdoT: NovaScreen (NVS) Transporter Assay for human Adenosine Transporter (Adot) (AID 2283368)
In short: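 Binding displacement on U937 extracted protein, read 1 h post-dose by filtration and scintillation counting. Primary duplicate test at 25 uM, then singleton concentration series with 50 uM top; DMSO baseline.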

[8] = target: human Serotonin Transporter (SERT), SLC6A4 (gene 6532) (UniProt P31645); test: NVS_TR_hSERT: NovaScreen (NVS) Transporter Assay for human Serotonin Transporter (SERT) (AID 2283372)
In short: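 Human platelet membrane preparation; displacement of radioligand from serotonin transporter measured after 1 h by filtration and scintillation counting. Single 25 uM duplicate screen, then concentration series for actives, with DMSO as negative baseline.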

[9] = target: Estrogen receptor beta (Homo sapiens) (UniProt Q92731); test: OT_ER_ERbERb_1440: Odyssey Thera (OT) 24-hour HEK293T Protein-Complementation Assay for Estrogen Receptor-beta/-beta Homodimer (AID 2283380);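 also: fluorescence gain from ER beta LBD homodimer complementation read by laser scanning cytometry; scored as signal increase over DMSO baseline for both agonists and antagonists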
In short: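 Fluorescence increase, nuclear for agonists or whole-cell for antagonists, relative to DMSO vehicle, quantified by laser scanning cytometer after fixation and Draq5 staining. Readout from 24 h treatment of HEK293T cells carrying complementation-paired ER beta LBD (aa 310-547).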

For `CC(C)c1ccc(C(=O)N=C(N)N)cc1S(C)(=O)=O`, the outcome [1] was “inactive” and the AC50 [2] was inconclusive: 18.6 µM.
`CCC(C)OC(=O)N1CCCCC1CCO` (stereo unspecified) was tested, and the outcome [1] was “inactive”.
In the case of `NC(=O)N(O)[C@@H]1COc2cc(OCc3ccccc3)ccc21`, the AC50 [1] is reported as inconclusive: 0.00406 µM, the AC50 [3] is reported as inconclusive: 0.352 µM and the outcome [4] is reported as “inactive”.
In the case of `CCCCCCCCCCCCC[N+](C)(C)Cc1ccccc1`, the AC50 [5] is reported as inconclusive: 6.94 µM, the AC50 [6] is reported as inconclusive: 14.3 µM and the AC50 [4] is reported as inconclusive: 14.4 µM.
For `COC(=O)c1ccc(CNS(C)(=O)=O)cc1S(=O)(=O)NC(=O)Nc1nc(OC)cc(OC)n1`, the AC50 [1] was inconclusive: 25 µM.
For `O=C(O)CC(C(=O)O)S(=O)(=O)O` (stereo unspecified), the AC50 [1] was inconclusive: 0.382 µM.
With `CCCCC(CC)CO` (stereo unspecified) the AC50 [1] was active: 0.00905 µM.
In the case of `OC1OC[C@@H](O)[C@H](O)[C@H]1O` (stereo partly specified), the outcome [1] is reported as “inactive”.
With `Cc1cccc(Nc2cc(Cl)nc(SCC(=O)O)n2)c1C` the AC50 [7] was inconclusive: 19.2 µM and the outcome [2] was “inactive”.
`CC=Cc1ccc(O)c(OC)c1` was tested, and the outcome [1] was “inactive”.
For `CCCCCCCCc1ccc(S(=O)(=O)O)cc1`, the AC50 [1] was active: 4.22 µM.
In the case of `Nc1nc(N)c2nc(CNc3ccc(C(=O)N[C@@H](CCC(=O)O)C(=O)O)cc3)cnc2n1`, the outcome [7] is reported as “inactive” and the outcome [4] is reported as “inactive”.
With `C=C(C)[C@H]1CC=C(C)C(=O)C1` the outcome [5] was “inactive”.
`O=NO` was tested, and the AC50 [1] was inconclusive: 46.7 µM.
`CCOC(=O)c1ccc(C2CCC(NC[C@H](O)COc3ccc(O)c(NS(C)(=O)=O)c3)CC2)cc1` (stereo partly specified) was tested, and the AC50 [8] was active: 14.9 µM, the AC50 [9] was inconclusive: 79.8 µM and the AC50 [6] was inconclusive: 84.9 µM.
`OCC(CO)(CBr)CBr` was tested, and the AC50 [1] was inconclusive: 25 µM and the AC50 [6] was inconclusive: 0.0381 µM.

Source: PubChem BioAssay (EPA / NIEHS)
